Test results from the supplement of paper PMC10849652.
Some of the results follow. Residues, ends and D or L forms follow the SMILES beside them. *: point of attachment. Cbz = O=C(OCc1ccccc1)*

By UniProt entry, the sequences of proteins in these tests, tags left out. Where a name states a change or a piece, a line headed by the entry shows the natural chain unless it says otherwise.
UniProt Q9Y2H6: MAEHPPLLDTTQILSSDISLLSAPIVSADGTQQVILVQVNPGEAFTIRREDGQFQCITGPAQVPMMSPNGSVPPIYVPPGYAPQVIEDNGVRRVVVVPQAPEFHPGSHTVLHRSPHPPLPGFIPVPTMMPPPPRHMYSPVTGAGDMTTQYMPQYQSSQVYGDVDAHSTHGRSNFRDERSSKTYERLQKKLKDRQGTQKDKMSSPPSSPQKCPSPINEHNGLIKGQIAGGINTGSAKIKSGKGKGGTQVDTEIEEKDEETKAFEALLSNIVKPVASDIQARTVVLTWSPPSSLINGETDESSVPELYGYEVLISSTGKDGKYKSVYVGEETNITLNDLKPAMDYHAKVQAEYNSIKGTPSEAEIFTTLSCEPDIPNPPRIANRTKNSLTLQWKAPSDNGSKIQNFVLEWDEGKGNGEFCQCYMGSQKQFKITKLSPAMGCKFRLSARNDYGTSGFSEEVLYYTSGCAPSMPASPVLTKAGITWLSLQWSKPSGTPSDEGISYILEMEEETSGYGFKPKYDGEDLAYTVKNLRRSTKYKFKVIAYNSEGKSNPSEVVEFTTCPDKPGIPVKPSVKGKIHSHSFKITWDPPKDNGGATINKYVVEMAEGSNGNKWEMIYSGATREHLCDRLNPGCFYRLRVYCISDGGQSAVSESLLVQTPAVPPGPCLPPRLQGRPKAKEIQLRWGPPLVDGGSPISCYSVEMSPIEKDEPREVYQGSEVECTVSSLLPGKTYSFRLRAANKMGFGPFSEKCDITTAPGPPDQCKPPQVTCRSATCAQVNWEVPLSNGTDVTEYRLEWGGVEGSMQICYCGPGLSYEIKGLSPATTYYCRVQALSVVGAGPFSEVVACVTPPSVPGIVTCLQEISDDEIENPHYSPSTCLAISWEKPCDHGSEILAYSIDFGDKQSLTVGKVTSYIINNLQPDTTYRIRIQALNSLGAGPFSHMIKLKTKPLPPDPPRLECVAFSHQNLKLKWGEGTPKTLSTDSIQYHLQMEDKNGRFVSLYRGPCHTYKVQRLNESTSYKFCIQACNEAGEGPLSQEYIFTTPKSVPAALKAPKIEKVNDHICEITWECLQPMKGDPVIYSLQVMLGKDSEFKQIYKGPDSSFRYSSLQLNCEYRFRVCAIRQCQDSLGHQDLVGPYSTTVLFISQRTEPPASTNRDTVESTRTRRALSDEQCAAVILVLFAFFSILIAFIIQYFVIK
UniProt Q7Z6M2: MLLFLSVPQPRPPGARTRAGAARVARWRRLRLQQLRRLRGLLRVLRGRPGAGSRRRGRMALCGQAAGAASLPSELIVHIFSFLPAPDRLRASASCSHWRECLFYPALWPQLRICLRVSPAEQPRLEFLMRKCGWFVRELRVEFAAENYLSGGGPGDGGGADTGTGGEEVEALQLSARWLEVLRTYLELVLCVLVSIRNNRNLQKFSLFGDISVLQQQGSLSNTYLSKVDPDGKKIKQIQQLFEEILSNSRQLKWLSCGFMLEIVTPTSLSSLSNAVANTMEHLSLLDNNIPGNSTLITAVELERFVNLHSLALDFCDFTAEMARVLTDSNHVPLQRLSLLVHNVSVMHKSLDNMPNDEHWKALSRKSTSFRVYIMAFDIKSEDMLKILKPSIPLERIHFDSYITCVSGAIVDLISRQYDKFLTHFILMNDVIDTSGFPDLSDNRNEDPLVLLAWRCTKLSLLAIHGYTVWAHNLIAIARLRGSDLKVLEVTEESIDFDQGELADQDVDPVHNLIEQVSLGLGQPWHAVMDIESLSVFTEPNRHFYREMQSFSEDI
UniProt Q9NVK5: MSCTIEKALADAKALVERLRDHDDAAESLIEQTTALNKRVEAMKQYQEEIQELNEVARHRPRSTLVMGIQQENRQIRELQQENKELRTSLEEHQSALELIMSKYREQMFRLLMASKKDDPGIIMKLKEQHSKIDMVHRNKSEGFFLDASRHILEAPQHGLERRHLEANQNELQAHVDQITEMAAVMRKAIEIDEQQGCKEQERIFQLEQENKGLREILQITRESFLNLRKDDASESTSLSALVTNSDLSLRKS
UniProt Q9HCM7, whole entry, looked up: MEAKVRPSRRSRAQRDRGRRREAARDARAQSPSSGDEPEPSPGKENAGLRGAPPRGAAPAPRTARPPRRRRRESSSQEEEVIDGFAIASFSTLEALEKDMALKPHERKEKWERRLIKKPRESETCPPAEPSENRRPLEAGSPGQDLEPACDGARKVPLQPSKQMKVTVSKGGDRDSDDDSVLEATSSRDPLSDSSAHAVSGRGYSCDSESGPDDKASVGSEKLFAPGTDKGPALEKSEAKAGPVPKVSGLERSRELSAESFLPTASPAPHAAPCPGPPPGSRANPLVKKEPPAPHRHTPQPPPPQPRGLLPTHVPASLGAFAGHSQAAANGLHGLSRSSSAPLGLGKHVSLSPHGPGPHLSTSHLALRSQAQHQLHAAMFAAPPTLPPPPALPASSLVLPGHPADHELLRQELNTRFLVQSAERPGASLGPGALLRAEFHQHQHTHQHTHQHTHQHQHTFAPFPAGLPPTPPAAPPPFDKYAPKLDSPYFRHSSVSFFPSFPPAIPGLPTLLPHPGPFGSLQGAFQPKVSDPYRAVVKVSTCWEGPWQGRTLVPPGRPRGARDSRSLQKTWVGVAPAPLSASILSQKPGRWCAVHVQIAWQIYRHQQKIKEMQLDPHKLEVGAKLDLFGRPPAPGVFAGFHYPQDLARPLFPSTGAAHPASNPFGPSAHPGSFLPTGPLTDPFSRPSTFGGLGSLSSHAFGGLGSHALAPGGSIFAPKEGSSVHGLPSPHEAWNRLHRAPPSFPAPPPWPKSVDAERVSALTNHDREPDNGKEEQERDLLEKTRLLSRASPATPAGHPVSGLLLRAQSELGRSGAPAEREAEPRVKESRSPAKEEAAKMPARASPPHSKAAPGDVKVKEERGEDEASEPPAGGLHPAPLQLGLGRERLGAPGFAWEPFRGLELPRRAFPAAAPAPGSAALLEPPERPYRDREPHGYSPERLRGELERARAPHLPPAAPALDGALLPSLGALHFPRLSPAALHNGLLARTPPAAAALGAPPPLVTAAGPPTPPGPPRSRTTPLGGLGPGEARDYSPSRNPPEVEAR
UniProt Q86XK2: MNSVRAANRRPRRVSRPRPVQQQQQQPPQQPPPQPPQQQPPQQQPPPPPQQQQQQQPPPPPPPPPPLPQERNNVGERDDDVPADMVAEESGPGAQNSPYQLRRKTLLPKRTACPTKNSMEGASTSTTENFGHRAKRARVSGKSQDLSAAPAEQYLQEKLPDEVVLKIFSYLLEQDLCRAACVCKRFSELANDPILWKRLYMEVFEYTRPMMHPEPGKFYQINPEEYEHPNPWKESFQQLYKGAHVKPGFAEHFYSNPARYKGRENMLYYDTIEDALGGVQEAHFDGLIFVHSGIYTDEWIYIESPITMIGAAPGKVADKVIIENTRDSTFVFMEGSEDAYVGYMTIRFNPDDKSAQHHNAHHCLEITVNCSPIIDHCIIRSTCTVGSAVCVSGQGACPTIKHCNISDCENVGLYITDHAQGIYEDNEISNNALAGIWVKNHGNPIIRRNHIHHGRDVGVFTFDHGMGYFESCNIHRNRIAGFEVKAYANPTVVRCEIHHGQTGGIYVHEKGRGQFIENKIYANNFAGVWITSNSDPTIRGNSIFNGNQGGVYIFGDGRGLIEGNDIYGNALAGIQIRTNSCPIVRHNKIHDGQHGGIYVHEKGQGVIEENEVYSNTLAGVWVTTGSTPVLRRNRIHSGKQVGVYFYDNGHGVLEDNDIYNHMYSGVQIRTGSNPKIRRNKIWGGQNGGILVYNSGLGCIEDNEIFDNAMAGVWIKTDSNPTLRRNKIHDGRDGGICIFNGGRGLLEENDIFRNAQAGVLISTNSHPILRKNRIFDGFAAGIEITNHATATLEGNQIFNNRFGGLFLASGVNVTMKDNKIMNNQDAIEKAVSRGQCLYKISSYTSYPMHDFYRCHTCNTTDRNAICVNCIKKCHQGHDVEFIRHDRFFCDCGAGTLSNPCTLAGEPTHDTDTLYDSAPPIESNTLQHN
UniProt Q9NYF3: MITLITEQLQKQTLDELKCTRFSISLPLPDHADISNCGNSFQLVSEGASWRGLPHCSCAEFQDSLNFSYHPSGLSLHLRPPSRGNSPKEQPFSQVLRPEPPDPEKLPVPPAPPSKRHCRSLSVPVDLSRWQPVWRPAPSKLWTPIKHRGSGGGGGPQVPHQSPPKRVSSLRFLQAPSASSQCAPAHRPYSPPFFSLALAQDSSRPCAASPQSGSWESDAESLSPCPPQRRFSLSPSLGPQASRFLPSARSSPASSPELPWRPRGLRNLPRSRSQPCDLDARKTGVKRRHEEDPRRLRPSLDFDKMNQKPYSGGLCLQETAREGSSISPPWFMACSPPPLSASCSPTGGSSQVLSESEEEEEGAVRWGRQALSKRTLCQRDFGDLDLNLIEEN
UniProt Q92562: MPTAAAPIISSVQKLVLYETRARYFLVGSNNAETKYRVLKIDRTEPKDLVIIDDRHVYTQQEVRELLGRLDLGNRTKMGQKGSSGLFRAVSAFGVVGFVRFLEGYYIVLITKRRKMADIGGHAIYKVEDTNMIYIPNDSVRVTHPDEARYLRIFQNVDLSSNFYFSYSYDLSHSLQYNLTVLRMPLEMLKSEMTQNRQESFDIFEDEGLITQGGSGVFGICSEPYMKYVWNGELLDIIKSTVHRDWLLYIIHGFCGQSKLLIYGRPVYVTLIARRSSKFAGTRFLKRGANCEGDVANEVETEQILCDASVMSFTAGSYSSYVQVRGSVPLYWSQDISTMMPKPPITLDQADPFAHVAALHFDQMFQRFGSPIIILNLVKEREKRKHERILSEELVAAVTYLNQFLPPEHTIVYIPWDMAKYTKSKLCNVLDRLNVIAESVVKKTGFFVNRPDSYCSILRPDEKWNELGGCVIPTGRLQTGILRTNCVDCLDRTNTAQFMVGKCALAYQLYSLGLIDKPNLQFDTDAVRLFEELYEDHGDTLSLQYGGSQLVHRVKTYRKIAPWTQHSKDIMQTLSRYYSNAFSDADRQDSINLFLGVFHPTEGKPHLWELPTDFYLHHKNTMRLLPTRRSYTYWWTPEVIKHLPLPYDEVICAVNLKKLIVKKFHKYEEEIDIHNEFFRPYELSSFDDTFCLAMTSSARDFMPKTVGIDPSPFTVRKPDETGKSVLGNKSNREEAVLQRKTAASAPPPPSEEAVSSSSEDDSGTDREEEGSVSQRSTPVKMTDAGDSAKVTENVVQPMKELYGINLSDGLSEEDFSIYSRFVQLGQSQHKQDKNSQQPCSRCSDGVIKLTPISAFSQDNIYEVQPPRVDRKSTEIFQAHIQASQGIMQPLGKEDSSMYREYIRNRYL
UniProt Q9NW38: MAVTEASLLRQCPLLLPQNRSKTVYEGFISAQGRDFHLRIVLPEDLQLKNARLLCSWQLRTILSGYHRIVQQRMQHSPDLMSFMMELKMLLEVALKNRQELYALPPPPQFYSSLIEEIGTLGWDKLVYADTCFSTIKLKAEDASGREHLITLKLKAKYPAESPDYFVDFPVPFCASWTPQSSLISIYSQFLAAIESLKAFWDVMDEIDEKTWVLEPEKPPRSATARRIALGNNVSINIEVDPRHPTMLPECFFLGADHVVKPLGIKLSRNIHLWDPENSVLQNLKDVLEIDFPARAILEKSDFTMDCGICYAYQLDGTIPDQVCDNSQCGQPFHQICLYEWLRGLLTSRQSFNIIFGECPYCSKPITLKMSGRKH
UniProt Q9NWM8: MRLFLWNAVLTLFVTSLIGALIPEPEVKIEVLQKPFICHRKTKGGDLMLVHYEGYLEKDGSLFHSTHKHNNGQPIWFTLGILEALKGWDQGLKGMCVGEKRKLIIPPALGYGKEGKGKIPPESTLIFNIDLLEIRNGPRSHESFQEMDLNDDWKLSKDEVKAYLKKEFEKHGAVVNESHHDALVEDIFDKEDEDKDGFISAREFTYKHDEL
UniProt Q96AY3, whole entry, looked up: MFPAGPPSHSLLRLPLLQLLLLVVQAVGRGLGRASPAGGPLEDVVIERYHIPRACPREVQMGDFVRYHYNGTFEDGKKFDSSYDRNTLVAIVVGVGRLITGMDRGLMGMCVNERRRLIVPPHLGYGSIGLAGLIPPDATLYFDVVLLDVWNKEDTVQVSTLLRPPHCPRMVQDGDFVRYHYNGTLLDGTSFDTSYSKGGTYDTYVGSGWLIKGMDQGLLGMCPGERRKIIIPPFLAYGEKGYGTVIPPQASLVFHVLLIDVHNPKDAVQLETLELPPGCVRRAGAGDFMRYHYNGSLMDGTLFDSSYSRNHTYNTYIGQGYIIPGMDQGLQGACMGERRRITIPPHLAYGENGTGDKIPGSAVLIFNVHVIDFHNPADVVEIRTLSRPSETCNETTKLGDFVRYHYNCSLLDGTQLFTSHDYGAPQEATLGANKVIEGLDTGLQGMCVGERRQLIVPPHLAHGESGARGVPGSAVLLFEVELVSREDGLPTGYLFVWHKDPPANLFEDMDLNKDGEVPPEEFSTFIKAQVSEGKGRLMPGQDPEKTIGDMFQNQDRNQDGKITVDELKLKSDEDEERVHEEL

Key:
Test in all cases: log2 fold change, soluble protein after heating vs DMSO (PISA); higher = thermal stabilisation; K562 cells, 10 uM, 30 min; active = over 0.2 and 3.5 SD of the protein, either way, in both replicates (recomputed)
[1] = compound: CC1=C(C2=C(C=C1)C(=O)C3=CC=CC=C3N2CCCN)C
How it was run: (§1)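 Aliquots of K562 cells (2×10^6 cells/mL) treated with 10 μM compound for 30 min were heated for 3 min over 48°C-58°C. After pooling and extraction in PBS with 0.5% NP-40 at 4°C, soluble protein from a 21,000xg, 90 min spin was quantified by TMTpro 16plex LC-MS/MS with channel sums equalised. Thermal stability is expressed against control samples, from duplicates, as a log2 fold change.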

[2] = compound: C=CC(=O)N1CCC[C@@H](n2nc(-c3ccc(Oc4ccccc4)cc3)c3c(N)ncnc32)C1 [ibrutinib]
How it was run: as §1

[3] = compound: CC(C)(C)Cn1c(N)nc2ccc(-c3[nH]c(C(C)(C)C)nc3-c3ccc(F)cc3)nc21 [ralimetinib]
How it was run: as §1

[4] = compound: CC(C)C[C@@H](C=O)NC(=O)[C@H](CC(C)C)NC(=O)[C@H](CC(C)C)NC(=O)OCc1ccccc1
How it was run: as §1

[5] = compound: CC1=C(C(CC(=O)N1)C2=CC=C(C=C2)C(F)(F)F)C(=O)NC3=C(C=C4C(=C3)C=NN4)F
How it was run: as §1

[6] = compound: CC1=C(C=C(C=C1)NC(=O)C2=CC(=CC=C2)C(C)(C)C#N)NC3=CC4=C(C=C3)N=CN(C4=O)C
How it was run: as §1

[7] = compound: CC1=C(C=C(C=C1)NC(=O)C2=CC(=CC=C2)N(C)C)NC(=O)C3=CC=C(C=C3)O
How it was run: as §1

[8] = compound: CCN(CCCOc1ccc2c(Nc3cc(CC(=O)Nc4cccc(F)c4)[nH]n3)ncnc2c1)CCOP(=O)(O)O [barasertib]
How it was run: as §1

[9] = compound: CC(=O)c1cnc2ccc(-c3cc(Cl)c(O)c(Cl)c3)nc2c1N[C@H]1CC[C@H](CN(C)C)CC1
How it was run: as §1

[10] = compound: CC(C)C1=C2N=C(C=C(N2N=C1)NCC3=CC=CC=C3)NCCCCCCN
How it was run: as §1

[11] = compound: CCCS(=O)(=O)Nc1ccc(F)c(C(=O)c2c[nH]c3ncc(-c4ccc(Cl)cc4)cc23)c1F [vemurafenib]
How it was run: as §1

[12] = compound: CCCc1cc(C)[nH]c(=O)c1CNC(=O)c1cc(-c2ccnc(N3CCN(C)CC3)c2)cc2c1cnn2C(C)C
How it was run: as §1

[13] = compound: CCN(CC)Cc1ccc2cc(COC(=O)Nc3ccc(C(=O)NO)cc3)ccc2c1 [givinostat]
How it was run: as §1

[14] = compound: CC(C)(O)CC(=O)NCCn1ccc2ncnc(Nc3ccc(Oc4cccc(C(F)(F)F)c4)c(Cl)c3)c21
How it was run: as §1

[15] = compound: CCCCN(Cc1ccc(C(=O)NO)cc1)C(=O)Nc1ccccc1 [Nexturastat A]
How it was run: as §1

[16] = compound: CC1=CC=C(C=C1)SC2=C3C=C(SC3=CN=C2)C(=O)N
How it was run: as §1

[17] = compound: CCCS(=O)(=O)Nc1ccc(F)c(C(=O)c2c[nH]c3ncc(Cl)cc23)c1F
How it was run: as §1

[18] = compound: C1COCCN1CCN2C3=CC=CC=C3N=C2NC(=O)C4=CC(=CC=C4)[N+](=O)[O-] [IRAK-1-4 Inhibitor I]
How it was run: as §1

[19] = compound: CC(C)N(C[C@H]1O[C@@H](n2cnc3c(N)ncnc32)[C@H](O)[C@@H]1O)[C@H]1C[C@@H](CCc2nc3cc(C(C)(C)C)ccc3[nH]2)C1 [pinometostat]
How it was run: as §1

[20] = compound: CC1=NC(=CC=C1)C2=C(N=C(N2)C(C)(C)C)C3=CC4=NC=CN=C4C=C3
How it was run: as §1

Measured: log2 fold change

FNDC3A (UniProt Q9Y2H6)
inactive: [1] 0.021

FBXO44 (UniProt Q9H4M3)
inactive: [2] 0.013 | [3] 0.113 | [4] 0.079 | [5] -0.303 | [6] 0.119 | [7] -0.029 | [8] 0.038

FGB (UniProt P02675)
inactive: [2] 0.282 | [9] 0.078 | [3] -0.232 | [10] 0.09 | [4] 0.071 | [5] 0.233 | [1] -0.109 | [6] -0.042 | [7] 0.225 | [11] 0.154 | [12] -0.239 | [13] -0.008 | [8] -0.011

FBXL4 (UniProt Q9UKA2)
inactive: [14] -0.107 | [6] -0.169 | [15] 0.436 | [11] -0.021 | [12] -0.023

FBXO33 (UniProt Q7Z6M2)
inactive: [2] -0.184 | [14] -0.048 | [15] 0.02 | [8] 0.078

FGFR1OP2 isoform 2 (UniProt Q9NVK5)
inactive: [16] -0.115 | [17] 0.028

FGL2 (UniProt Q14314)
inactive: [10] 0.113 | [13] 0.098

FMNL1 isoform 3 (UniProt O95466)
inactive: [2] 0.114 | [9] -0.197 | [14] 0.341 | [6] 0.205 | [15] 0.669 | [8] 0.169

FAT4 (UniProt Q6V0I7)
inactive: [9] 0.002 | [3] -0.295 | [4] 0.291 | [5] 0.141 | [1] -0.383 | [6] 0.057 | [7] 0.043 | [11] -0.235 | [12] -0.085

FBRSL1 (UniProt Q9HCM7)
inactive: [9] 0.164 | [3] -0.301 | [14] -0.02 | [10] 0.144 | [4] 0.068 | [5] -0.147 | [1] -0.157 | [7] 0.086 | [15] -0.07 | [13] 0.239

FBXO11 isoform 5 (UniProt Q86XK2)
inactive: [14] 0.053 | [10] -0.317 | [1] -0.246 | [6] 0.006 | [16] 0.037 | [15] 0.119 | [17] -0.175 | [12] -0.008 | [13] 0.112

FAM53C (UniProt Q9NYF3)
inactive: [3] 0.083 | [4] 0.136 | [5] -0.113 | [1] -0.207 | [6] -0.054 | [7] -0.075 | [16] 0.01 | [17] -0.025

FAM86B2 (UniProt P0C5J1)
inactive: [6] -0.006

FAM76A isoform 3 (UniProt Q8TAV0)
inactive: [2] -0.124 | [9] 0.023 | [14] -0.021 | [10] -0.004 | [1] 0.016 | [6] -0.01 | [16] -0.049 | [15] 0.027 | [11] -0.028 | [17] -0.017 | [13] -0.033 | [8] 0.049

FHL1 isoform 4 (UniProt Q13642)
inactive: [2] -0.074 | [9] -0.098 | [14] 0.156 | [10] 0.117 | [5] 0.398 | [1] -0.089 | [6] -0.199 | [16] 0.042 | [15] 0.153 | [11] -0.162 | [17] -0.074 | [13] -0.015 | [8] 0.045

Fetched one by one from the list above (two):
FAM76A isoform 3 (UniProt Q8TAV0)
inactive: [2] -0.124 | [9] 0.023 | [14] -0.021 | [10] -0.004 | [1] 0.016 | [6] -0.01 | [16] -0.049 | [15] 0.027 | [11] -0.028 | [17] -0.017 | [13] -0.033 | [8] 0.049

FBXO11 isoform 5 (UniProt Q86XK2)
inactive: [14] 0.053 | [10] -0.317 | [1] -0.246 | [6] 0.006 | [16] 0.037 | [15] 0.119 | [17] -0.175 | [12] -0.008 | [13] 0.112

Additional results follow.

FLII isoform 2 (UniProt Q13045)
inactive: [9] 0.01 | [3] -0.106 | [14] -0.046 | [4] -0.134 | [1] 0.035 | [6] 0.068 | [7] -0.002 | [16] 0.171 | [15] -0.075 | [17] 0.011

FMR1 (UniProt Q06787)
inactive: [18] 0.091 | [3] 0.036 | [10] 0.149 | [4] 0.056 | [19] 0.153 | [6] -0.023 | [7] 0.036 | [16] -0.066 | [20] -0.163 | [17] -0.094 | [12] -0.068 | [13] -0.203

FAM222B (UniProt Q8WU58)
inactive: [9] 0.04 | [3] 0.138 | [14] -0.011 | [10] 0.011 | [4] 0.017 | [1] 0.286 | [7] -0.062 | [16] -0.081 | [15] 0.088 | [17] -0.039 | [12] -0.119 | [13] -0.045

FAM83A (UniProt Q86UY5)
inactive: [9] -0.314 | [3] -0.03 | [14] -0.088 | [10] -0.171 | [4] 0.257 | [5] -0.238 | [1] -0.073 | [6] -0.042 | [7] -0.049 | [16] 0.082 | [15] 0.047 | [11] -0.005 | [17] -0.037 | [12] 0.13 | [13] 0.214

FLT1 (UniProt P17948)
inactive: [16] -0.139 | [11] -0.231 | [17] -0.256

FASTKD5 (UniProt Q7L8L6)
inactive: [2] 0.09 | [9] -0.207 | [3] -0.146 | [14] 0.051 | [10] -0.23 | [4] -0.244 | [1] 0.115 | [6] 0.282 | [7] -0.125 | [16] -0.115 | [15] -0.118 | [11] 0.17 | [17] -0.221 | [13] 0.162 | [8] 0.098

FARP2 (UniProt O94887)
inactive: [9] -0.059 | [1] 0.041 | [16] -0.058 | [11] -0.12 | [17] -0.241

FGG (UniProt P02679)
inactive: [3] -0.048 | [4] 0.231 | [7] 0.067 | [16] -0.093 | [17] -0.214

FAM219B (UniProt Q5XKK7)
inactive: [6] -0.115 | [16] -0.04 | [17] -0.155 | [12] 0.051

FAM98C (UniProt Q17RN3)
inactive: [9] 0.194 | [12] -0.04

FMOD (UniProt Q06828)
inactive: [9] 0.006

FIG4 (UniProt Q92562)
inactive: [10] -0.084 | [16] 0.014 | [17] 0.026 | [13] -0.062

FANCL isoform 2 (UniProt Q9NW38)
inactive: [9] -0.284 | [11] 0.185

FAM83G (UniProt A6ND36)
inactive: [14] 0.136 | [1] 0.131 | [15] 0.096 | [11] -0.035

FITM2 (UniProt Q8N6M3)
inactive: [2] 0.118 | [10] -0.232 | [5] -0.038 | [12] -0.2 | [13] 0.051 | [8] 0.04

FMR1NB (UniProt Q8N0W7)
inactive: [9] -0.075 | [14] 0.278 | [15] -0.333

FKBP14 (UniProt Q9NWM8)
inactive: [2] -0.021 | [9] 0.002 | [3] 0.01 | [14] 0.074 | [10] 0.03 | [4] -0.055 | [5] 0.092 | [1] 0.037 | [6] 0.007 | [7] 0.029 | [16] 0.046 | [15] 0.09 | [11] -0.014 | [17] -0.009 | [12] 0.018 | [13] 0.155 | [8] -0.006

FNIP1 (UniProt Q8TF40)
inactive: [2] 0.233 | [3] -0.054 | [14] 0.114 | [10] 0.066 | [4] -0.116 | [1] -0.042 | [7] 0.248 | [16] -0.208 | [15] -0.046 | [17] -0.286 | [12] -0.007 | [13] 0.116 | [8] 0.011

FNBP1 (UniProt Q96RU3)
inactive: [9] -0.051 | [1] -0.22

FKBP10 (UniProt Q96AY3)
inactive: [6] 0.181
